The exact form of at least one protein or probe is not confirmed.
Biological target: C/EBP2 (NF-IL6), full length (Homo sapiens) (UniProt P17676)
Assay: activity in cells
Details: CAT reporter activated only on cotransfection with CMV-NFIL6(+); protein in cells; protein details: CMV-NFIL6(+) expressed in Jurkat cells; only the site is given

The chains behind the UniProt entries cited, without tags or fusion partners. A line that says so, or that is headed by a name, gives the form on record, which may keep a tag or linker.
UniProt P17676, other isoform, or with tags, fused parts or gaps: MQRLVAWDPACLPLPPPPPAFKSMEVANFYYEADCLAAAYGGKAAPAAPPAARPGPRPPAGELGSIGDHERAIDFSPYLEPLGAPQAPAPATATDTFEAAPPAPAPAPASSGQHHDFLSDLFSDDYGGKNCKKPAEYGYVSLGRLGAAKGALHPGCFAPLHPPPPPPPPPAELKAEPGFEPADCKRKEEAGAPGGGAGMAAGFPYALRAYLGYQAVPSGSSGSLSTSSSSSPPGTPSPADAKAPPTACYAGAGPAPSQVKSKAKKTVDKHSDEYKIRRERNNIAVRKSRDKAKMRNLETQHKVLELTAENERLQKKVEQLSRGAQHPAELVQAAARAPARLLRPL

## AGATTGCACAATCTGATCAGATTGCACAATCTGATCGATTCGACAATCT (double strand) [IL-1RE 3 copies of 14 bp palindrome (IL-1RE-K9CAT reporter)]
  activity on this sequence: active
